Test results taken from US9085541B2, “Process for producing imine compounds for combating invertebrate pests” (priority 2010, dated 2015).
Some results were stated once for a whole list of compounds, not compound by compound.

Test system: tobacco budworm (Heliothis virescens)
Experiment: Tobacco budworm (Heliothis virescens) I: 96-well microtiter plates with insect diet and eggs, egg and larval mortality
Type: in vivo
Conditions: at 2500 ppm; sprayed onto insect diet; 5 days incubation; in comparison with untreated controls
Method: B.1 Tobacco Budworm (Heliothis virescens) I
For evaluating control of tobacco budworm (Heliothis virescens) the test unit consisted of 96-well-microtiter plates containing an insect diet and 15-25 H. virescens eggs. The compounds were formulated using a solution containing 75% v/v water and 25% v/v DMSO. Different concentrations of formulated compounds were sprayed onto the insect diet at 10 μl, using a custom built micro atomizer, at two replications. After application, microtiter plates are incubated at about 28±1° C. and about 80±5% relative humidity for 5 days. Egg and larval mortality is then visually assessed.

SMILES | mortality (egg and larval mortality, visually assessed)
O=C(NCC(F)F)NN=Cc1ccc(C2=NOC(c3cc(Cl)cc(Cl)c3)(C(F)(F)F)C2)cc1Cl (stereo not drawn) [Compound 4-19] | at least 75%
CC(COc1ccccc1)NC(=O)NN=Cc1ccc(C2=NOC(c3cc(Cl)cc(Cl)c3)(C(F)(F)F)C2)cc1Cl (stereo not drawn) [Compound 4-42] | at least 75%
Cc1c(C=NNC(=O)NCC(F)(F)F)ccc(C2=NOC(c3cc(Cl)cc(Cl)c3)(C(F)(F)F)C2)c1C (stereo not drawn) [Compound 6-7] | at least 75%
O=C(NCC(F)(F)F)NN=Cc1ccc(C2=NOC(c3cc(F)c(F)c(F)c3)(C(F)(F)F)C2)cc1Cl (stereo not drawn) [Compound 8-1] | at least 75%
CNC(=S)NN=Cc1ccc(C2=NOC(c3cc(Cl)cc(Cl)c3)(C(F)(F)F)C2)c(C)c1C (stereo not drawn) [Compound 6-4] | at least 75%
Cc1cc(C2=NOC(c3cc(Cl)cc(Cl)c3)(C(F)(F)F)C2)ccc1C=NNC(=O)N(C)CC(F)(F)F (racemic) [Compound 1-44] | at least 75%
Cc1cc(C2=NOC(c3cc(Cl)cc(Cl)c3)(C(F)(F)F)C2)ccc1C=NNc1ccc(Cl)cn1 (stereo not drawn) [Compound 1-81] | at least 75%
COCC(C)NC(=O)NN=Cc1ccc(C2=NOC(c3cc(Cl)cc(Cl)c3)(C(F)(F)F)C2)cc1OC (stereo not drawn) [Compound 9-8] | at least 75%
CCOc1cc(C2=NOC(c3cc(Cl)cc(Cl)c3)(C(F)(F)F)C2)ccc1C=NNC(=O)NC (racemic) [Compound 11-2] | at least 75%
Cc1cc(C2=NOC(c3cc(Cl)cc(Cl)c3)(C(F)(F)F)C2)ccc1C=NNc1nccs1 (stereo not drawn) [Compound 1-94] | at least 75%
Cc1cc(C2=NOC(c3cc(Cl)cc(Cl)c3)(C(F)(F)F)C2)ccc1C=NNC(=O)NCCC(F)(F)F (stereo not drawn) [Compound 1-21] | at least 75%
N#Cc1cc(C2=NOC(c3cc(Cl)cc(Cl)c3)(C(F)(F)F)C2)ccc1C=NNC(=O)NC1CC1 (stereo not drawn) [Compound 5-4] | at least 75%
FC(F)(F)C1(c2cc(Cl)cc(Cl)c2)CC(c2ccc(C=NNc3ccccn3)c(Cl)c2)=NO1 (stereo not drawn) [Compound 4-44] | at least 75%
FC(F)(F)C1(c2cc(Cl)cc(Cl)c2)CC(c2ccc(C=NNc3nccs3)c(Cl)c2)=NO1 (stereo not drawn) [Compound 4-51] | at least 75%
Cc1cc(C2=NOC(c3cc(F)c(F)c(F)c3)(C(F)(F)F)C2)ccc1C=NNC(=S)NCC(F)(F)F (stereo not drawn) [Compound 7-8] | at least 75%
O=C(NN=Cc1ccc(C2=NOC(c3cc(Cl)cc(Cl)c3)(C(F)(F)F)C2)cc1Cl)NC1CC1 (stereo not drawn) [Compound 4-2] | at least 75%
Cc1cc(C2=NOC(c3cc(Cl)cc(Cl)c3)(C(F)(F)F)C2)ccc1C=NNC(=O)NCCSC(F)(F)F (racemic) [Compound 1-35] | at least 75%
COc1cc(C2=NOC(c3cc(Cl)cc(Cl)c3)(C(F)(F)F)C2)ccc1C=NNC(=O)NC(C)CSC (stereo not drawn) [Compound 9-6] | at least 75%
Cc1cc(C2=NOC(c3cc(Cl)cc(Cl)c3)(C(F)(F)F)C2)ccc1C=NNC(=O)Nc1csc(Cl)n1 (racemic) [Compound 1-65] | at least 75%
CC(NC(=O)NN=Cc1ccc(C2=NOC(c3cc(Cl)cc(Cl)c3)(C(F)(F)F)C2)cc1Cl)c1ccccc1 (stereo not drawn) [Compound 4-36] | at least 75%
N#Cc1cc(C2=NOC(c3cc(Cl)cc(Cl)c3)(C(F)(F)F)C2)ccc1C=NNC(=O)NCC(F)(F)F (stereo not drawn) [Compound 5-1] | at least 75%
CCCCNC(=O)NN=Cc1ccc(C2=NOC(c3cc(Cl)cc(Cl)c3)(C(F)(F)F)C2)cc1C (stereo not drawn) [Compound 1-15] | at least 75%
O=C(NCC(F)(F)F)NN=Cc1ccc(C2=NOC(c3cc(Cl)cc(Cl)c3)(C(F)(F)F)C2)cc1Cl (stereo not drawn) [Compound 4-1] | at least 75%
CCCNC(=O)NN=Cc1ccc(C2=NOC(c3cc(Cl)cc(Cl)c3)(C(F)(F)F)C2)cc1C(F)(F)F (stereo not drawn) [Compound 2-15] | at least 75%
Cc1cc(C2=NOC(c3cc(Cl)cc(Cl)c3)(C(F)(F)F)C2)ccc1C=NNC(=O)NCc1ccc(Cl)nc1 (stereo not drawn) [Compound 1-27] | at least 75%
Cc1cc(C2=NOC(c3cc(Cl)cc(Cl)c3)(C(F)(F)F)C2)ccc1C=NNC(=O)Nc1ccncc1 (stereo not drawn) [Compound 1-26] | at least 75%
O=C(NCC1CC1)NN=Cc1ccc(C2=NOC(c3cc(Cl)cc(Cl)c3)(C(F)(F)F)C2)c2ccccc12 (racemic) [Compound 10-5] | at least 75%

SMILES | mortality (egg and larval mortality, visually assessed)
COc1cc(C2=NOC(c3cc(Cl)cc(Cl)c3)(C(F)(F)F)C2)ccc1C=NNC(=O)NC1(c2ccccc2)CC1 (stereo not drawn) [Compound 9-14] | at least 75%
O=C(NCc1ccnc(Cl)c1)NN=Cc1ccc(C2=NOC(c3cc(Cl)cc(Cl)c3)(C(F)(F)F)C2)cc1C(F)(F)F (stereo not drawn) [Compound 2-18] | at least 75%
FC(F)(F)C1(c2cc(Cl)cc(Cl)c2)CC(c2ccc(C=NNc3cccc(Cl)n3)c(Cl)c2)=NO1 (stereo not drawn) [Compound 4-45] | at least 75%
Cc1cc(C2=NOC(c3cc(Cl)cc(Cl)c3)(C(F)(F)F)C2)ccc1C=NNC(=O)NC(C)(C)CS(C)(=O)=O (stereo not drawn) [Compound 1-87] | at least 75%
CCCNC(=O)NN=Cc1ccc(C2=NOC(c3cc(Cl)cc(Cl)c3)(C(F)(F)F)C2)cc1Cl (stereo not drawn) [Compound 4-17] | at least 75%
Cc1cc(C2=NOC(c3cc(Cl)cc(Cl)c3)(C(F)(F)F)C2)ccc1C=NNC(=S)NCC(F)(F)F (racemic) [Compound 1-67] | at least 75%
Cc1cc(C2=NOC(c3cc(Cl)cc(Cl)c3)(C(F)(F)F)C2)ccc1C=NNC(=O)NC1CC1 (stereo not drawn) [Compound 1-8] | at least 75%
CNC(=O)NN=Cc1ccc(C2=NOC(c3cc(Cl)cc(Cl)c3)(C(F)(F)F)C2)cc1F (stereo not drawn) [Compound 3-1] | at least 75%
COCCNC(=O)NN=Cc1ccc(C2=NOC(c3cc(Cl)cc(Cl)c3)(C(F)(F)F)C2)cc1C(F)(F)F (stereo not drawn) [Compound 2-9] | at least 75%
COCCCNC(=O)NN=Cc1ccc(C2=NOC(c3cc(Cl)cc(Cl)c3)(C(F)(F)F)C2)cc1C(F)(F)F (stereo not drawn) [Compound 2-8] | at least 75%
CNC(=O)NN=Cc1ccc(C2=NOC(c3cc(Cl)cc(Cl)c3)(C(F)(F)F)C2)c2ccccc12 (racemic) [Compound 10-2] | at least 75%
O=C(NN=Cc1ccc(C2=NOC(c3cc(Cl)cc(Cl)c3)(C(F)(F)F)C2)cc1Cl)N1CCSCC1 (stereo not drawn) [Compound 4-9] | at least 75%
Cc1cc(C2=NOC(c3cc(Cl)cc(Cl)c3)(C(F)(F)F)C2)ccc1C=NNC(=O)NC(C)C[S+](C)[O-] (stereo not drawn) [Compound 1-89] | at least 75%
Cc1cc(C2=NOC(c3cc(Cl)cc(Cl)c3)(C(F)(F)F)C2)ccc1C=NNC(=O)NC(C)(C)C[S+](C)[O-] (stereo not drawn) [Compound 1-88] | at least 75%
O=C(NN=Cc1ccc(C2=NOC(c3cc(Cl)cc(Cl)c3)(C(F)(F)F)C2)cc1Cl)NC1CCS(=O)(=O)C1 (stereo not drawn) [Compound 4-12] | at least 75%
O=C(NN=Cc1ccc(C2=NOC(c3cc(Cl)cc(Cl)c3)(C(F)(F)F)C2)cc1Cl)NC1CCCC1 (stereo not drawn) [Compound 4-15] | at least 75%
Cc1cc(C2=NOC(c3cc(Cl)cc(Cl)c3)(C(F)(F)F)C2)ccc1C=NNC(=O)Nc1ccnc(Cl)c1 (racemic) [Compound 1-39] | at least 75%
COCC(C)NC(=O)NN=Cc1ccc(C2=NOC(c3cc(Cl)cc(Cl)c3)(C(F)(F)F)C2)cc1C (stereo not drawn) [Compound 1-71] | at least 75%
O=C(NCC(F)(F)F)NN=Cc1ccc(C2=NOC(c3cc(Cl)cc(Cl)c3)(C(F)(F)F)C2)c2ccccc12 (racemic) [Compound 10-1] | at least 75%
O=C(NN=Cc1ccc(C2=NOC(c3cc(F)c(F)c(F)c3)(C(F)(F)F)C2)cc1Cl)NC1CC1 (stereo not drawn) [Compound 8-3] | at least 75%
Cc1cc(C2=NOC(c3cc(Cl)cc(Cl)c3)(C(F)(F)F)C2)ccc1C=NNC(=O)NCC(=O)NC1CC1 (racemic) [Compound 1-53] | at least 75%
O=C(NN=Cc1ccc(C2=NOC(c3cc(Cl)cc(Cl)c3)(C(F)(F)F)C2)cc1Cl)Nc1csc(C(F)(F)F)n1 (stereo not drawn) [Compound 4-24] | at least 75%
Cc1cc(C2=NOC(c3cc(Cl)cc(Cl)c3)(C(F)(F)F)C2)ccc1C=NNC(=O)N1CCOCC1 (stereo not drawn) [Compound 1-23] | at least 75%
O=C(NCCOc1ccccc1)NN=Cc1ccc(C2=NOC(c3cc(Cl)cc(Cl)c3)(C(F)(F)F)C2)cc1Cl (stereo not drawn) [Compound 4-35] | at least 75%
O=C(NCC(F)(F)F)NN=Cc1ccc(C2=NOC(c3cc(Cl)cc(Cl)c3)(C(F)(F)F)C2)cc1C(F)(F)F (stereo not drawn) [Compound 2-1] | at least 75%
O=C(NCCC(F)(F)F)NN=Cc1ccc(C2=NOC(c3cc(Cl)cc(Cl)c3)(C(F)(F)F)C2)cc1C(F)(F)F (stereo not drawn) [Compound 2-6] | at least 75%
Cc1cc(C2=NOC(c3cc(Cl)cc(Cl)c3)(C(F)(F)F)C2)ccc1C=NNC(=O)NC(C)C(F)(F)F (stereo not drawn) [Compound 1-85] | at least 75%
